Laboratory results published in the supplement of paper PMC7877785.
± gives the uncertainty stated by the source. Many of these values have a large error.

Experiment: self-splicing fitness, log relative to wild type (ln ratio); higher = more splicing; Tetrahymena group I intron in knt gene, E. coli kanamycin selection, DiMSum; sequences stand for … in CUCUCU…GGAGGGAAAAGUUAUCAGGCAUGCACCUGGUAGCUAGUCUUUAAACCAAUAGAUUGCAUCGGUUUAAAAGGCAAGACCGUCAAAUUGCGGGAAAGGGGUCAACAGCCGUUCAGUACCAAGUCUCAGGGGAAACUUUGAGAUGGCCUUGCAAAGGGUAUGGUAAUAAGCUGACGGACAUGGUCCUAACCACGCAGCCAAGUCCUAAGUCAACAGAUCUUCUGUUGAUAUGGAUGCAGUUCACAGACUAAAUGUCGGUCGGGGAAGAUGUAUUCUUCUCAUAAGAUAUAGUCGGACCUCUCCUUAAUGGGAGCUAGCGGAUGAAGUGAUGCAACACUGGAGCCGCUGGGAACUAAUUUGUAUGCGAAAGUAUAUUGAUUAGUUUUGGAGUACUCGUGGUCG
How it was run: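 Six replicate transformations of E. coli BL21(DE3) with a pET-22b(+) library were grown overnight at 37°C or 30°C. The library randomised all eight P1ex-region intron nucleotides, the intron lying in the knt kanamycin-resistance gene, and plates were LB agar with or without 25 μg/mL kanamycin plus 100 μg/mL carbenicillin, 50 μM IPTG and 0.2% rhamnose. Pooled colonies were amplicon-sequenced on an Illumina HiSeq 2500, and fitness is the DiMSum error-weighted combination of wild-type-normalised replicate fold changes, kanamycin versus none.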

| Sequence | self-splicing fitness (ln) (30 °C) | self-splicing fitness (ln) (37 °C) |
| --- | --- | --- |
| AAGGAGCAAUAUUACGCUUC | -4.28 ± 0.59 | – |
| UUCUAGCAAUAUUACGAAGC | -2.02 ± 0.87 | – |
| CAGGAGCAAUAUUACGGCAU | – | -2.23 ± 0.8 |
| CUUCAGCAAUAUUACGUAUA | -3.15 ± 0.27 | -1.98 ± 0.2 |
| AGUGAGCAAUAUUACGCGGC | – | -3.52 ± 0.52 |
| UUUGAGCAAUAUUACGCUUU | -3.19 ± 0.58 | – |
| UAAGAGCAAUAUUACGGUCC | -3.83 ± 1 | -2.87 ± 0.74 |
| GGAAAGCAAUAUUACGCUUC | – | -1.97 ± 0.57 |
| GGGGAGCAAUAUUACGGUCA | -2.83 ± 0.67 | – |
| CUGCAGCAAUAUUACGCUGA | – | -3.49 ± 0.73 |
| GCGCAGCAAUAUUACGUCAG | -2.03 ± 0.14 | -2.23 ± 0.18 |
| AGUGAGCAAUAUUACGUCUU | -1.07 ± 0.082 | -1.31 ± 0.1 |
| UUUUAGCAAUAUUACGCGGU | -2.74 ± 0.62 | – |
| UUUUAGCAAUAUUACGAGUU | -3.04 ± 0.53 | – |
| CUAGAGCAAUAUUACGAACC | -1.8 ± 0.47 | -2.59 ± 0.74 |
| GCAGAGCAAUAUUACGGCGG | -3.77 ± 0.59 | -1.16 ± 0.63 |
| CUAGAGCAAUAUUACGAUCA | – | -1.41 ± 0.71 |
| CUCUAGCAAUAUUACGCGUU | -5.33 ± 0.58 | – |
| AUCUAGCAAUAUUACGCCGG | -3.28 ± 0.53 | – |
| UCCUAGCAAUAUUACGUACC | -2.36 ± 0.47 | – |
| AUGCAGCAAUAUUACGCGGC | – | -1.77 ± 0.58 |
| CUACAGCAAUAUUACGCAUU | -5.01 ± 0.51 | – |
| AGAGAGCAAUAUUACGCGGA | -3.92 ± 1 | – |
| CCGUAGCAAUAUUACGGACC | – | -2.23 ± 1.1 |

Record cards (already shown).
CUACAGCAAUAUUACGCAUU in the list: self-splicing fitness (ln) (30 °C): -5.01 ± 0.51
AGUGAGCAAUAUUACGUCUU in the list: self-splicing fitness (ln) (30 °C): -1.07 ± 0.082; self-splicing fitness (ln) (37 °C): -1.31 ± 0.1
CUAGAGCAAUAUUACGAUCA in the list: self-splicing fitness (ln) (37 °C): -1.41 ± 0.71
GCGCAGCAAUAUUACGUCAG in the list: self-splicing fitness (ln) (30 °C): -2.03 ± 0.14; self-splicing fitness (ln) (37 °C): -2.23 ± 0.18

Going on with the list:

| Sequence | self-splicing fitness (ln) (30 °C) | self-splicing fitness (ln) (37 °C) |
| --- | --- | --- |
| UCCGAGCAAUAUUACGGAUC | -3.85 ± 0.53 | – |
| ACAGAGCAAUAUUACGCGUC | -5.64 ± 0.58 | – |
| CUGGAGCAAUAUUACGCAGU | -1.93 ± 0.58 | – |
| GCUUAGCAAUAUUACGGCCA | -1.93 ± 0.67 | – |
| UCUGAGCAAUAUUACGCCCA | -0.868 ± 1.4 | -0.681 ± 1.4 |
| GUUAAGCAAUAUUACGAACC | -0.0715 ± 0.54 | -3.58 ± 0.73 |
| UUUCAGCAAUAUUACGGGCU | -3.54 ± 0.61 | -1 ± 0.53 |
| UUCUAGCAAUAUUACGGAAG | -2.14 ± 0.66 | – |
| AUGAAGCAAUAUUACGCCGC | -1.52 ± 0.55 | -0.276 ± 0.92 |
| AUCUAGCAAUAUUACGGUUC | -2.94 ± 0.32 | -2.34 ± 0.32 |
| CGCAAGCAAUAUUACGGGUG | -1.59 ± 0.062 | -0.366 ± 0.08 |
| AUAAAGCAAUAUUACGGGUG | -1.03 ± 0.082 | -0.259 ± 0.094 |
| AUCUAGCAAUAUUACGUAAC | -4.54 ± 0.73 | -1.13 ± 0.5 |
| GUUUAGCAAUAUUACGUGAC | -1.94 ± 0.69 | – |
| CACUAGCAAUAUUACGGCCA | – | -2.51 ± 0.54 |
| CUAAAGCAAUAUUACGCAUC | – | -2.55 ± 0.54 |
| UCUUAGCAAUAUUACGUCAC | -3.7 ± 1.1 | – |
| AUUAAGCAAUAUUACGUCAC | -2.82 ± 0.55 | – |
| ACGGAGCAAUAUUACGCCUG | -3.41 ± 0.2 | -1.52 ± 0.19 |
| UACUAGCAAUAUUACGUCAC | – | -2.39 ± 0.76 |
| GGGUAGCAAUAUUACGUACC | -2.52 ± 0.66 | -1.39 ± 0.61 |
| GGCUAGCAAUAUUACGCCGC | – | -2.05 ± 0.58 |
| AUGGAGCAAUAUUACGCUGG | -2.22 ± 0.56 | – |
| CUCAAGCAAUAUUACGCCAC | -3.76 ± 1 | -2.8 ± 0.53 |

| Sequence | self-splicing fitness (ln) (30 °C) | self-splicing fitness (ln) (37 °C) |
| --- | --- | --- |
| CGGGAGCAAUAUUACGAUAG | -2.71 ± 1.1 | – |
| CCCGAGCAAUAUUACGCCAG | – | -3.49 ± 0.59 |
| UUCGAGCAAUAUUACGCAUC | – | -3.51 ± 0.61 |
| CCGCAGCAAUAUUACGGCGC | -2.21 ± 0.51 | – |
| CGUUAGCAAUAUUACGGCGG | -0.628 ± 0.1 | -0.396 ± 0.12 |
| CUUGAGCAAUAUUACGGUGA | -3.34 ± 0.27 | -2 ± 0.25 |
| UUAUAGCAAUAUUACGAGAC | -3.7 ± 1.1 | – |
| CAGGAGCAAUAUUACGGAGA | -2.81 ± 0.28 | -2.34 ± 0.37 |
| GAGGAGCAAUAUUACGCUGC | – | -1.99 ± 0.52 |
| UAGCAGCAAUAUUACGCCGC | -2.36 ± 0.57 | -2.76 ± 1.1 |
| CCGAAGCAAUAUUACGCUCU | – | -1.3 ± 0.53 |
| CUUCAGCAAUAUUACGAGUC | -4.26 ± 0.52 | – |
| GGAGAGCAAUAUUACGCGGC | -0.524 ± 0.59 | – |
| UGCGAGCAAUAUUACGACCA | – | -0.45 ± 0.53 |
| CUGGAGCAAUAUUACGCUCC | – | -0.113 ± 0.76 |
| ACGGAGCAAUAUUACGUACA | -2.48 ± 0.56 | -2.15 ± 0.64 |
| GGUAAGCAAUAUUACGCAUC | -0.177 ± 0.65 | -1.98 ± 1.1 |
| CAUUAGCAAUAUUACGCGGC | -3.98 ± 0.28 | -1.8 ± 0.28 |
| UAGUAGCAAUAUUACGAAAU | – | -3.45 ± 0.73 |
| CCGGAGCAAUAUUACGGAUU | -4.33 ± 0.51 | – |
| GAGGAGCAAUAUUACGACUG | – | -1.68 ± 0.56 |
| UUUCAGCAAUAUUACGACCC | – | -0.704 ± 0.73 |
| UAAGAGCAAUAUUACGGGUC | -6.01 ± 1 | – |
| UCGUAGCAAUAUUACGCGCC | – | -1.65 ± 0.69 |

| Sequence | self-splicing fitness (ln) (30 °C) | self-splicing fitness (ln) (37 °C) |
| --- | --- | --- |
| CGGGAGCAAUAUUACGAAAC | – | -1.79 ± 0.82 |
| CUGCAGCAAUAUUACGACCA | -3.11 ± 0.66 | -1.74 ± 0.62 |
| CCUUAGCAAUAUUACGCCGC | – | -1.66 ± 0.58 |
| GAUUAGCAAUAUUACGUCCC | -0.907 ± 0.17 | -0.221 ± 0.17 |
| ACUUAGCAAUAUUACGGUGG | – | -3.69 ± 0.52 |
| GGGGAGCAAUAUUACGCUUU | – | -2.73 ± 0.54 |
| AACAAGCAAUAUUACGCUGG | -2.25 ± 0.081 | -1.04 ± 0.1 |
| GUUAAGCAAUAUUACGCGAG | -0.369 ± 0.1 | -0.341 ± 0.14 |
| UUUUAGCAAUAUUACGUAGU | – | -3.17 ± 0.52 |
| UCUCAGCAAUAUUACGCGAC | -3.93 ± 0.52 | – |
| AUCGAGCAAUAUUACGCUCC | -3.41 ± 0.73 | – |
| CGCGAGCAAUAUUACGCAAG | -2.92 ± 0.27 | -2.91 ± 0.43 |
| ACCAAGCAAUAUUACGGACC | -0.368 ± 0.098 | -0.214 ± 0.12 |
| CCGUAGCAAUAUUACGUAUC | -5.1 ± 0.72 | – |
| CCGAAGCAAUAUUACGACCU | -3.73 ± 0.32 | -2.3 ± 0.36 |
| AUGUAGCAAUAUUACGUCUC | -4.19 ± 0.59 | – |
| UCAUAGCAAUAUUACGAAAA | – | -2.51 ± 0.61 |
| AAGUAGCAAUAUUACGUUGC | -3.66 ± 0.14 | -3.19 ± 0.21 |
| CAUAAGCAAUAUUACGGAAC | -4.48 ± 0.51 | – |
| UGCCAGCAAUAUUACGGUAC | -4.51 ± 0.59 | – |
| CAGCAGCAAUAUUACGAGCC | -3.27 ± 0.62 | – |
| GGCGAGCAAUAUUACGGUGU | -2.02 ± 0.25 | -1.55 ± 0.17 |
| ACGGAGCAAUAUUACGAAUA | -2.17 ± 0.82 | -3.76 ± 0.59 |
| AAGCAGCAAUAUUACGAGAA | -2.53 ± 0.84 | – |

| Sequence | self-splicing fitness (ln) (30 °C) | self-splicing fitness (ln) (37 °C) |
| --- | --- | --- |
| AUUGAGCAAUAUUACGCGGU | – | -3.76 ± 0.59 |
| UACUAGCAAUAUUACGACAA | -0.443 ± 0.12 | -0.256 ± 0.11 |
| CCCGAGCAAUAUUACGGCGU | -2.83 ± 0.13 | -1.71 ± 0.13 |
| GACGAGCAAUAUUACGCCGG | – | -1.14 ± 0.54 |
| GAUUAGCAAUAUUACGAUGA | -1.8 ± 0.13 | 0.00201 ± 0.11 |
| UAAGAGCAAUAUUACGACAC | -5.01 ± 0.72 | -2.77 ± 0.63 |
| CAUUAGCAAUAUUACGUGUG | -2.91 ± 0.19 | -3.15 ± 0.19 |
| CGCUAGCAAUAUUACGCCAA | -3.66 ± 1 | – |
| UAGGAGCAAUAUUACGAUCU | – | -2.61 ± 0.62 |
| CGGGAGCAAUAUUACGGGUC | -4.16 ± 1 | – |
| CGGGAGCAAUAUUACGCCAG | -2.44 ± 0.57 | -1.15 ± 0.84 |
| GGGGAGCAAUAUUACGCGCU | -3.48 ± 1.1 | -2.63 ± 0.63 |
| GGGGAGCAAUAUUACGCUGC | – | -2.67 ± 1.1 |
| CCUGAGCAAUAUUACGAACA | -2.43 ± 0.64 | -1.34 ± 0.61 |
| GCUAAGCAAUAUUACGACGA | -0.978 ± 0.088 | -0.529 ± 0.1 |
| AGUAAGCAAUAUUACGCUGC | – | -3.73 ± 0.73 |
| UGUUAGCAAUAUUACGGAGU | -4.97 ± 0.58 | – |
| CAGAAGCAAUAUUACGUUAC | -5.2 ± 0.59 | -2.72 ± 0.2 |
| GUUAAGCAAUAUUACGAGAA | -1.55 ± 0.71 | -1.98 ± 0.85 |
| AAAUAGCAAUAUUACGCGCA | -0.264 ± 0.092 | -0.103 ± 0.11 |
| CAGGAGCAAUAUUACGAACC | -3.1 ± 0.61 | – |
| GGUCAGCAAUAUUACGCCCC | – | -2.08 ± 1.1 |
| CGCGAGCAAUAUUACGAUUA | -3.1 ± 0.3 | -1.99 ± 0.35 |
| AGCGAGCAAUAUUACGAAGA | -4.21 ± 0.52 | – |
